Results deposited as PubChem BioAssay AID1259405 (NCATS, 2018)

Purpose: 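Silenced genes that increase secreted GFP made by CHO cells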 (primary screen)
System: Chinese hamster CHO-K1 ovary cells with stable secreted eGFP expression
Knock-down reagent: single siRNA against mouse genes, 0.8 pmol siRNA per well (2 µl of 400 nM stock)
Time to read-out: 3 days
Measurement: 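Percent of the per-plate non-targeting control median for intracellular GFP per well by laser scanning cytometry and for cell viability by ATP luminescence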
Reading the numbers: GFP, % of control: higher = more GFP per well, higher productivity; viability (ATP), % of control: higher = more viable cells (more ATP)
Rule for the call: 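a knock-down is called active if GFP reaches 120% or more of non-targeting control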
This is a random part of about 50,000 reagents tested. About 4,000 of all reagents (8%) count as active. 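Mouse siRNA library applied to hamster cells; one well for each siRNA.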 The numbers tell different reagents against one gene apart.

| Gene | reagent no. | GFP, % of control | viability (ATP), % of control | activity call |
| --- | --- | --- | --- | --- |
| Mbtd1 (mbt domain containing 1) | 1 | 43.3 | 58.1 | inactive |
| Mbtd1 (mbt domain containing 1) | 2 | 64.7 | 84.9 | inactive |
| Mbtd1 (mbt domain containing 1) | 3 | 83.1 | 81.4 | inactive |
| Nicn1 (nicolin 1) | 1 | 74.7 | 61.6 | inactive |
| Nicn1 (nicolin 1) | 2 | 36 | 54.7 | inactive |
| Nicn1 (nicolin 1) | 3 | 134 | 56.6 | active |
| Atg13 (autophagy related 13) | 1 | 75.2 | 79.9 | inactive |
| Atg13 (autophagy related 13) | 2 | 55.7 | 92.1 | inactive |
| Atg13 (autophagy related 13) | 3 | 73.6 | 33.2 | inactive |
| Gtf2ird2 (GTF2I repeat domain containing 2) | 1 | 50.2 | 53.3 | inactive |
| Gtf2ird2 (GTF2I repeat domain containing 2) | 2 | 60.9 | 65.3 | inactive |
| Gtf2ird2 (GTF2I repeat domain containing 2) | 3 | 89.6 | 78.3 | inactive |
| Gtf2a1 (general transcription factor II A, 1) | 1 | 84.7 | 78.7 | inactive |
| Gtf2a1 (general transcription factor II A, 1) | 2 | 138 | 83.4 | active |
| F830208F22Rik (RIKEN cDNA F830208F22 gene) | 1 | 72.4 | 81.7 | inactive |
| F830208F22Rik (RIKEN cDNA F830208F22 gene) | 2 | 72.8 | 75.3 | inactive |
| F830208F22Rik (RIKEN cDNA F830208F22 gene) | 3 | 59.9 | 60.1 | inactive |
| Cxcl11 (chemokine (C-X-C motif) ligand 11) | 1 | 93.8 | 93.4 | inactive |
| Cxcl11 (chemokine (C-X-C motif) ligand 11) | 2 | 58.4 | 73.8 | inactive |
| Polr1e (polymerase (RNA) I polypeptide E) | 1 | 90.2 | 111 | inactive |
| Polr1e (polymerase (RNA) I polypeptide E) | 2 | 79.8 | 72.9 | inactive |
| Polr1e (polymerase (RNA) I polypeptide E) | 3 | 52.4 | 129 | inactive |
| Rpl23 (ribosomal protein L23) | 1 | 82.2 | 99 | inactive |
| Rpl23 (ribosomal protein L23) | 2 | 82.1 | 66.6 | inactive |
| Rpl23 (ribosomal protein L23) | 3 | 62.4 | 60.5 | inactive |
| Paxip1 | 1 | 122 | 92.5 | active |
| Paxip1 | 2 | 81.7 | 42.1 | inactive |
| Paxip1 | 3 | 95 | 113 | inactive |
| Neurl1a (neuralized E3 ubiquitin protein ligase 1A) | 1 | 66.4 | 65.5 | inactive |
| Neurl1a (neuralized E3 ubiquitin protein ligase 1A) | 2 | 121 | 46.6 | active |
| Neurl1a (neuralized E3 ubiquitin protein ligase 1A) | 3 | 86.7 | 96.7 | inactive |
| Or51a10 (olfactory receptor family 51 subfamily A member 10) | 1 | 106 | 55.7 | inactive |
| Or51a10 (olfactory receptor family 51 subfamily A member 10) | 2 | 113 | 24.1 | inactive |
| Or51a10 (olfactory receptor family 51 subfamily A member 10) | 3 | 46.4 | 76.7 | inactive |
| Ccdc171 (coiled-coil domain containing 171) | 1 | 53.8 | 43.6 | inactive |
| Ccdc171 (coiled-coil domain containing 171) | 2 | 46.8 | 27.5 | inactive |
| Ccdc171 (coiled-coil domain containing 171) | 3 | 74.4 | 87.4 | inactive |
| Stag3 (STAG3 cohesin complex component) | 1 | 118 | 54.6 | inactive |
| Stag3 (STAG3 cohesin complex component) | 2 | 127 | 78.6 | active |
| Stag3 (STAG3 cohesin complex component) | 3 | 46.2 | 49.1 | inactive |
| C2 (complement C2) | 1 | 125 | 126 | active |
| C2 (complement C2) | 2 | 72.8 | 81.1 | inactive |
| Slamf8 (SLAM family member 8) | 1 | 88.3 | 51.1 | inactive |
| Slamf8 (SLAM family member 8) | 2 | 117 | 77.6 | inactive |
| Slamf8 (SLAM family member 8) | 3 | 70.8 | 89.3 | inactive |
| Epha4 (Eph receptor A4) | 1 | 79.9 | 85.4 | inactive |
| Or6z5 (olfactory receptor family 6 subfamily Z member 5) | 1 | 99.4 | 71.1 | inactive |
| Or6z5 (olfactory receptor family 6 subfamily Z member 5) | 2 | 61.3 | 79.9 | inactive |
| Or6z5 (olfactory receptor family 6 subfamily Z member 5) | 3 | 139 | 92.4 | active |
| Slitrk5 (SLIT and NTRK-like family, member 5) | 1 | 88.8 | 71.7 | inactive |
| Slitrk5 (SLIT and NTRK-like family, member 5) | 2 | 59.1 | 76.5 | inactive |
| Slitrk5 (SLIT and NTRK-like family, member 5) | 3 | 51.4 | 47.8 | inactive |
| Kcnh5 | 1 | 173 | 109 | active |
| Kcnh5 | 2 | 69.2 | 32.6 | inactive |
| Kcnh5 | 3 | 84.4 | 75.3 | inactive |
| N4bp1 (NEDD4 binding protein 1) | 1 | 84.5 | 65.4 | inactive |
| N4bp1 (NEDD4 binding protein 1) | 2 | 79 | 71 | inactive |
| N4bp1 (NEDD4 binding protein 1) | 3 | 68.4 | 75.3 | inactive |

Already shown: entries from further up.
| Gene | reagent no. | GFP, % of control | viability (ATP), % of control | activity call |
| --- | --- | --- | --- | --- |
| Paxip1 | 2 | 81.7 | 42.1 | inactive |
| Paxip1 | 3 | 95 | 113 | inactive |
| Neurl1a (neuralized E3 ubiquitin protein ligase 1A) | 1 | 66.4 | 65.5 | inactive |
| Neurl1a (neuralized E3 ubiquitin protein ligase 1A) | 2 | 121 | 46.6 | active |
| Neurl1a (neuralized E3 ubiquitin protein ligase 1A) | 3 | 86.7 | 96.7 | inactive |
| Or51a10 (olfactory receptor family 51 subfamily A member 10) | 1 | 106 | 55.7 | inactive |
| Or51a10 (olfactory receptor family 51 subfamily A member 10) | 2 | 113 | 24.1 | inactive |
| Or51a10 (olfactory receptor family 51 subfamily A member 10) | 3 | 46.4 | 76.7 | inactive |
| Ccdc171 (coiled-coil domain containing 171) | 1 | 53.8 | 43.6 | inactive |
| Ccdc171 (coiled-coil domain containing 171) | 2 | 46.8 | 27.5 | inactive |
| Ccdc171 (coiled-coil domain containing 171) | 3 | 74.4 | 87.4 | inactive |
| Stag3 (STAG3 cohesin complex component) | 1 | 118 | 54.6 | inactive |
| Stag3 (STAG3 cohesin complex component) | 2 | 127 | 78.6 | active |
| Stag3 (STAG3 cohesin complex component) | 3 | 46.2 | 49.1 | inactive |
| C2 (complement C2) | 1 | 125 | 126 | active |
| C2 (complement C2) | 2 | 72.8 | 81.1 | inactive |
| Slamf8 (SLAM family member 8) | 1 | 88.3 | 51.1 | inactive |

The listing continues:
| Gene | reagent no. | GFP, % of control | viability (ATP), % of control | activity call |
| --- | --- | --- | --- | --- |
| Ccnf (cyclin F) | 1 | 97.3 | 87.3 | inactive |
| Ccnf (cyclin F) | 2 | 102 | 86.7 | inactive |
| Kcnab3 | 1 | 62.7 | 41.6 | inactive |
| Kcnab3 | 2 | 59 | 40.3 | inactive |
| Kcnab3 | 3 | 93.1 | 87.2 | inactive |
| Rasal1 (RAS protein activator like 1 (GAP1 like)) | 1 | 96 | 75.2 | inactive |
| Rasal1 (RAS protein activator like 1 (GAP1 like)) | 2 | 117 | 60.5 | inactive |
| Rasal1 (RAS protein activator like 1 (GAP1 like)) | 3 | 76.5 | 62.2 | inactive |
| Crem (cAMP responsive element modulator) | 1 | 54.5 | 57.9 | inactive |
| Crem (cAMP responsive element modulator) | 2 | 55 | 49.7 | inactive |
| Crem (cAMP responsive element modulator) | 3 | 132 | 111 | active |
| Prpf4b (pre-mRNA processing factor 4B) | 1 | 41.2 | 39.5 | inactive |
| Ndrg3 (N-myc downstream regulated gene 3) | 1 | 40.1 | 42.1 | inactive |
| Ndrg3 (N-myc downstream regulated gene 3) | 2 | 105 | 55.2 | inactive |
| Ndrg3 (N-myc downstream regulated gene 3) | 3 | 131 | 82.3 | active |
| Mov10 (Mov10 RISC complex RNA helicase) | 1 | 98.1 | 101 | inactive |
| Mov10 (Mov10 RISC complex RNA helicase) | 2 | 69.2 | 111 | inactive |
| Mov10 (Mov10 RISC complex RNA helicase) | 3 | 31.9 | 51.9 | inactive |
| Ranbp6 (RAN binding protein 6) | 1 | 66.9 | 49.3 | inactive |
| Ranbp6 (RAN binding protein 6) | 2 | 65.1 | 52.9 | inactive |
| Ranbp6 (RAN binding protein 6) | 3 | 75.9 | 94.7 | inactive |
| Cyp17a1 (cytochrome P450, family 17, subfamily a, polypeptide 1) | 1 | 79.1 | 97.7 | inactive |
| Cyp17a1 (cytochrome P450, family 17, subfamily a, polypeptide 1) | 2 | 91.9 | 73.1 | inactive |
| Cyp17a1 (cytochrome P450, family 17, subfamily a, polypeptide 1) | 3 | 63.3 | 61.1 | inactive |
| Rnaseh2a (ribonuclease H2, large subunit) | 1 | 96.9 | 110 | inactive |
| Rnaseh2a (ribonuclease H2, large subunit) | 2 | 47.3 | 57.3 | inactive |
| Rnaseh2a (ribonuclease H2, large subunit) | 3 | 63.5 | 55.2 | inactive |
| Or2y1c (olfactory receptor family 2 subfamily Y member 1C) | 1 | 43.6 | 49.1 | inactive |
| Or2y1c (olfactory receptor family 2 subfamily Y member 1C) | 2 | 85.5 | 52.1 | inactive |
| Or2y1c (olfactory receptor family 2 subfamily Y member 1C) | 3 | 68.3 | 57.2 | inactive |
| Cep89 (centrosomal protein 89) | 1 | 85.6 | 72.9 | inactive |
| Cep89 (centrosomal protein 89) | 2 | 103 | 51.8 | inactive |
| Cep89 (centrosomal protein 89) | 3 | 119 | 77.3 | inactive |
| Sorbs1 (sorbin and SH3 domain containing 1) | 1 | 88.4 | 109 | inactive |
| Sorbs1 (sorbin and SH3 domain containing 1) | 2 | 121 | 72.7 | active |
| Sorbs1 (sorbin and SH3 domain containing 1) | 3 | 46 | 39 | inactive |
| Cherp (calcium homeostasis endoplasmic reticulum protein) | 1 | 102 | 87.1 | inactive |
| Cherp (calcium homeostasis endoplasmic reticulum protein) | 2 | 61.9 | 66.8 | inactive |
| Cherp (calcium homeostasis endoplasmic reticulum protein) | 3 | 99.9 | 88.3 | inactive |
| Gstz1 | 1 | 66.9 | 93.1 | inactive |
| Gstz1 | 2 | 64.1 | 88.7 | inactive |
| Gstz1 | 3 | 73.8 | 77.3 | inactive |
| Vmn1r83 (vomeronasal 1 receptor 83) | 1 | 132 | 85.9 | active |
| Vmn1r83 (vomeronasal 1 receptor 83) | 2 | 60.9 | 47.8 | inactive |
| Vmn1r83 (vomeronasal 1 receptor 83) | 3 | 76.1 | 71.1 | inactive |
| Cyp27b1 (cytochrome P450, family 27, subfamily b, polypeptide 1) | 1 | 61.4 | 82.7 | inactive |
| Cyp27b1 (cytochrome P450, family 27, subfamily b, polypeptide 1) | 2 | 59.9 | 83.3 | inactive |
| Cyp27b1 (cytochrome P450, family 27, subfamily b, polypeptide 1) | 3 | 55 | 39.9 | inactive |
| Ubap1 (ubiquitin-associated protein 1) | 1 | 47.7 | 78.8 | inactive |
| Ubap1 (ubiquitin-associated protein 1) | 2 | 78.4 | 81.2 | inactive |
| Ubap1 (ubiquitin-associated protein 1) | 3 | 79.5 | 90.7 | inactive |
